Laboratory results taken from the supplement of paper PMC7877785.
± gives the uncertainty stated by the source. Many of these values have a large error.

Assay: self-splicing fitness, log relative to wild type (ln ratio); higher = more splicing; Tetrahymena group I intron in knt gene, E. coli kanamycin selection, DiMSum; sequences stand for … in CUCUCU…GGAGGGAAAAGUUAUCAGGCAUGCACCUGGUAGCUAGUCUUUAAACCAAUAGAUUGCAUCGGUUUAAAAGGCAAGACCGUCAAAUUGCGGGAAAGGGGUCAACAGCCGUUCAGUACCAAGUCUCAGGGGAAACUUUGAGAUGGCCUUGCAAAGGGUAUGGUAAUAAGCUGACGGACAUGGUCCUAACCACGCAGCCAAGUCCUAAGUCAACAGAUCUUCUGUUGAUAUGGAUGCAGUUCACAGACUAAAUGUCGGUCGGGGAAGAUGUAUUCUUCUCAUAAGAUAUAGUCGGACCUCUCCUUAAUGGGAGCUAGCGGAUGAAGUGAUGCAACACUGGAGCCGCUGGGAACUAAUUUGUAUGCGAAAGUAUAUUGAUUAGUUUUGGAGUACUCGUGGUCG
How it was run: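 DiMSum derived fitness as the error-weighted combination of fold changes across replicates, kanamycin versus no kanamycin, normalised to wild type. E. coli BL21(DE3) held the library, which randomised all eight P1ex-region intron nucleotides within the knt kanamycin-resistance gene on pET-22b(+). Six replicate transformations grew overnight at 37°C or 30°C on LB agar with or without 25 μg/mL kanamycin, also containing 100 μg/mL carbenicillin, 50 μM IPTG and 0.2% rhamnose, and pooled colonies were amplicon-sequenced on an Illumina HiSeq 2500.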

Row | Sequence | self-splicing fitness (ln) (37 °C) | self-splicing fitness (ln) (30 °C)
1 | GCAGAGCAAUAUUACGCACA | -1.66 ± 0.52 | 
2 | GUCAAGCAAUAUUACGCACC |  | -1.96 ± 1.2
3 | UAGGAGCAAUAUUACGGGGC | -1.98 ± 1.1 | -1.15 ± 0.76
4 | UUGUAGCAAUAUUACGAGGA | -1.69 ± 1.2 | -2.87 ± 0.85
5 | AUGUAGCAAUAUUACGGAAG |  | -3.96 ± 0.59
6 | AGGGAGCAAUAUUACGCCGG | -1.98 ± 1.1 | -3.1 ± 0.63
7 | GUCCAGCAAUAUUACGAAAC | -0.568 ± 0.2 | -0.222 ± 0.15
8 | AAUUAGCAAUAUUACGAGAC |  | -3.78 ± 0.53
9 | AGAGAGCAAUAUUACGGGGU |  | -4.63 ± 0.59
10 | CCAUAGCAAUAUUACGAAAA | -3.63 ± 0.51 | 
11 | UGGCAGCAAUAUUACGGCGC | -1.16 ± 0.58 | -3.54 ± 0.53
12 | UAGUAGCAAUAUUACGAGUU | -2.75 ± 0.23 | -3.96 ± 0.28
13 | GUGGAGCAAUAUUACGCGGA |  | -2.95 ± 0.52
14 | CGUAAGCAAUAUUACGCAAC | -1.74 ± 0.79 | -4.51 ± 0.51
15 | GCGUAGCAAUAUUACGUAUA | -1.52 ± 0.21 | -2.15 ± 0.26
16 | CGGGAGCAAUAUUACGCACG | -2.74 ± 0.74 | 
17 | CCGGAGCAAUAUUACGAAGC |  | -3.52 ± 1.1
18 | GCGGAGCAAUAUUACGUAAC | -1.45 ± 0.54 | 
19 | UAGGAGCAAUAUUACGAGAC | -1.31 ± 0.53 | 
20 | GCAGAGCAAUAUUACGACCC | -0.000218 ± 0.52 | -2.87 ± 1.1
21 | CGUGAGCAAUAUUACGAAAC |  | -2.83 ± 0.5
22 | GGCUAGCAAUAUUACGGGCC |  | -2.51 ± 0.56

Reprinted from the entries so far (two entries):
Row | Sequence | self-splicing fitness (ln) (37 °C) | self-splicing fitness (ln) (30 °C)
1 | GCAGAGCAAUAUUACGCACA | -1.66 ± 0.52 | 
2 | GUCAAGCAAUAUUACGCACC |  | -1.96 ± 1.2

The list continues.

Row | Sequence | self-splicing fitness (ln) (37 °C) | self-splicing fitness (ln) (30 °C)
23 | AAUAAGCAAUAUUACGAAGC | -2.59 ± 0.54 | 
24 | CGCUAGCAAUAUUACGCAGC | -2.8 ± 0.33 | 
25 | UUAGAGCAAUAUUACGCAUU | -1.37 ± 1.2 | 
26 | CGGAAGCAAUAUUACGUCAA | -3.55 ± 0.42 | -2.75 ± 0.54
27 | GGAGAGCAAUAUUACGUAAA |  | -3.69 ± 0.53
28 | CUUGAGCAAUAUUACGGCUC |  | -1.93 ± 0.54
29 | AGCGAGCAAUAUUACGCACG | -2.32 ± 0.67 | 
30 | CGUUAGCAAUAUUACGAGGC | -2.9 ± 0.53 | -3.26 ± 0.63
31 | CUUGAGCAAUAUUACGACUC |  | -2.67 ± 0.69
32 | UCCGAGCAAUAUUACGUCAC | -1.57 ± 0.55 | 
33 | GCGCAGCAAUAUUACGUCCC | 0.234 ± 0.2 | -1.14 ± 0.3
34 | UCUGAGCAAUAUUACGGUCC | -3.12 ± 0.73 | 
35 | UGCCAGCAAUAUUACGGCGC | -3.04 ± 0.23 | -3.8 ± 0.27
36 | UUUGAGCAAUAUUACGCCCA | -2.47 ± 1.1 | -0.167 ± 1.2
37 | AAGCAGCAAUAUUACGCCAG | -1.43 ± 0.41 | -2.67 ± 0.36
38 | CAAUAGCAAUAUUACGUCCC | -1.61 ± 0.51 | 
39 | CUUAAGCAAUAUUACGCGCC | -2.52 ± 0.62 | -4.18 ± 0.52
40 | AAGGAGCAAUAUUACGGGUC | -2.23 ± 0.57 | -4.37 ± 0.51
41 | GCAUAGCAAUAUUACGCUGG |  | -4.94 ± 0.71
42 | ACUGAGCAAUAUUACGUUGC |  | -4.87 ± 0.59
43 | GAUAAGCAAUAUUACGUAUU | -1.78 ± 0.21 | -4.03 ± 0.37
44 | AAGGAGCAAUAUUACGCGGC | -3 ± 1.1 | 
